PubChem BioAssay AID493246 – Drosophila RNAi Screening Center | 2011
In all, the deposit lists about 21,000 reagents; below is an unselected part of those with a known target gene and a result. Of all reagents, 429 (2%) are marked active. 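Values are raw and not normalised between plates; calls rest on per-plate z-scores that were not deposited.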 Unmarked entries are inactive. Names joined by + are all predicted targets of the reagent. Not stated in the record: the amount of reagent, the time to read-out.

- Purpose: 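Genome-wide search for dsRNAs that reduce cell number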 (primary screen)
- System: Drosophila Kc and S2R+ cells
- Knock-down reagent: long dsRNA against Drosophila genes
- Read-out: 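Raw, unnormalised count of remaining cells in each well; per-plate z-scores of cell number underlie the calls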
- Direction: Kc cell number and S2R+ cell number: higher = more cells remaining
- Call rule: 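Active when the per-plate z-score of cell number is 3 or more in the direction of fewer cells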

| Target gene | DRSC id | Kc cell number, rep 1 | Kc cell number, rep 2 | S2R+ cell number, rep 1 | S2R+ cell number, rep 2 |
| --- | --- | --- | --- | --- | --- |
| CG15177 | DRSC12557 | 1.41e6 | 1.58e6 | 1.19e6 | 1.31e6 |
| zfh1 | DRSC14014 | 1.25e6 | 1.50e6 | 8.63e5 | 9.14e5 |
| zfh1 | DRSC17098 | 4.05e5 | – | 5.97e5 | – |
| Rab4 | DRSC07524 | 1.39e6 | 1.46e6 | 9.18e5 | 1.00e6 |
| COX6B | DRSC19590 | 1.47e6 | 1.51e6 | 9.62e5 | 1.03e6 |
| Cap-D3 + tomb | DRSC02347 | 1.55e6 | 1.42e6 | 1.20e6 | 1.38e6 |
| Cyp313a4 | DRSC16627 | 1.59e6 | 1.64e6 | 1.32e6 | 1.38e6 |
| Acsf2 | DRSC02172 | 1.76e6 | 1.85e6 | 1.31e6 | 1.45e6 |
| Odc1 | DRSC07482 | 1.47e6 | 1.40e6 | 1.15e6 | 1.18e6 |
| Dhrs4 | DRSC09773 | 1.41e6 | 1.48e6 | 1.34e6 | 1.18e6 |
| CG5762 | DRSC15869 | 1.46e6 | 1.51e6 | 1.15e6 | 1.09e6 |
| CG3163 | DRSC04341 | 1.39e6 | 1.44e6 | 1.06e6 | 1.11e6 |
| IntS12 | DRSC15818 | 1.33e6 | 1.35e6 | 9.25e5 | 1.03e6 |
| Veneno | DRSC16537 | 1.47e6 | 1.58e6 | 1.23e6 | 1.29e6 |
| CG31612 | DRSC03697 | 1.65e6 | 1.67e6 | 1.22e6 | 2.67e5 |
| CG31612 | DRSC03698 | 1.65e6 | 1.66e6 | 1.19e6 | 2.32e5 |
| Lcp65Ac | DRSC11210 | 1.42e6 | 1.38e6 | 1.07e6 | 1.20e6 |
| gl | DRSC16957 | 1.40e6 | 1.54e6 | 1.03e6 | 1.05e6 |
| CG4021 | DRSC04439 | 1.63e6 | 1.72e6 | 1.28e6 | 3.58e5 |
| CG10802 | DRSC17762 | 5.69e5 | – | 8.37e5 | – |
| CG3823 | DRSC18325 | 1.52e6 | 1.43e6 | 1.04e6 | 1.20e6 |
| ksr | DRSC12379 | 1.31e6 | 1.49e6 | 1.26e6 | 1.34e6 |
| Prp18 | DRSC16802 | 1.54e6 | 1.65e6 | 1.05e6 | 1.12e6 |
| CG1812 | DRSC20557 | 1.77e6 | 1.71e6 | 1.10e6 | 1.16e6 |
| Ncoa6 | DRSC02353 | 2.06e5 (active) | 4.22e5 | 2.02e5 | 2.68e5 |
| Ankrd49 | DRSC01894 | 1.53e6 | 1.59e6 | 1.29e6 | 1.36e6 |
| chm | DRSC03341 | 1.33e6 | 1.36e6 | 7.02e5 | 6.97e5 |
| mRpS6 | DRSC08470 | 1.59e6 | 1.50e6 | 9.89e5 | 1.14e6 |
| mir-210 (retired record) | DRSC19230 | 1.22e6 | 1.42e6 | 1.07e6 | 1.13e6 |
| dan | DRSC14406 | 1.59e6 | 1.49e6 | 1.33e6 | 1.40e6 |
| gprs | DRSC06761 | 1.56e6 | 1.61e6 | 1.22e6 | 1.33e6 |
| Noc1 | DRSC10921 | 1.31e6 | 1.41e6 | 1.12e6 | 1.03e6 |
| boss | DRSC16916 | 1.40e6 | 1.43e6 | 9.65e5 | 1.04e6 |
| CG33325 | DRSC12699 | 1.56e6 | 1.49e6 | 1.11e6 | 1.24e6 |
| CG33251 (retired record) + CG9915 | DRSC20217 | 1.58e6 | 1.64e6 | 1.20e6 | 1.25e6 |
| Polr2H | DRSC11642 | 1.65e6 | 1.77e6 | 9.99e5 | 1.03e6 |
| CalpA | DRSC07352 | 1.52e6 | 1.59e6 | 1.14e6 | 1.26e6 |
| mthl8 | DRSC08211 | 1.50e6 | 1.50e6 | 1.24e6 | 1.23e6 |
| mthl8 | DRSC08311 | 1.26e6 | 1.25e6 | 9.90e5 | 1.30e6 |
| CG42541 | DRSC17973 | 1.59e6 | 1.56e6 | 1.05e6 | 1.16e6 |
| CG42541 | DRSC18119 | 8.36e5 (active) | 9.13e5 | 4.41e5 | 5.14e5 |
| CG42541 | DRSC18120 | 1.50e6 | 1.47e6 | 1.04e6 | 1.14e6 |
| CG14245 | DRSC14740 | 1.57e6 | 1.68e6 | 1.08e6 | 1.14e6 |
| CG31183 | DRSC14403 | 1.38e6 | 1.37e6 | 1.10e6 | 1.19e6 |
| CG31183 | DRSC15554 | 1.57e6 | 1.67e6 | 1.18e6 | 1.26e6 |
| abs | DRSC12372 | 1.84e6 | 1.95e6 | 1.17e6 | 1.34e6 |
| CG34204 | DRSC03897 | 5.42e5 | – | 8.44e5 | – |
| CG15484 | DRSC02494 | 1.45e6 | 1.45e6 | 1.05e6 | 1.13e6 |
| mRpS31 | DRSC10556 | 1.87e6 | 1.93e6 | 1.22e6 | 1.37e6 |
| CkIIbeta | DRSC20230 | 1.50e6 | 1.53e6 | 9.30e5 | 1.02e6 |
| Miga | DRSC17821 | 1.68e6 | 1.61e6 | 1.07e6 | 1.20e6 |
| CG34049 | DRSC00104 | 1.59e6 | 1.64e6 | 1.05e6 | 1.19e6 |
| Prp39 | DRSC15133 | 5.86e5 | – | 7.30e5 | – |
| flw | DRSC17992 | 1.65e6 | 1.64e6 | 1.04e6 | 1.15e6 |
| flw | DRSC18774 | 1.55e6 | 1.50e6 | 9.57e5 | 1.08e6 |
| PpN58A | DRSC04642 | 1.43e6 | 1.50e6 | 1.04e6 | 1.08e6 |
| Gr98d | DRSC14571 | 1.51e6 | 1.59e6 | 1.04e6 | 1.15e6 |
| CG32544 | DRSC20033 | 1.58e6 | 1.57e6 | 1.06e6 | 1.18e6 |
| Ktch | DRSC15094 | 1.55e6 | 1.59e6 | 1.09e6 | 1.22e6 |

Records listed above called active, once more:
| Target gene | DRSC id | Kc cell number, rep 1 | Kc cell number, rep 2 | S2R+ cell number, rep 1 | S2R+ cell number, rep 2 |
| --- | --- | --- | --- | --- | --- |
| Ncoa6 | DRSC02353 | 2.06e5 (active) | 4.22e5 | 2.02e5 | 2.68e5 |
| CG42541 | DRSC18119 | 8.36e5 (active) | 9.13e5 | 4.41e5 | 5.14e5 |
